# Reference: patent US20090311716A1, “METHODS TO TREAT OR PREVENT HORMONE-RESISTANT PROSTATE CANCER USING siRNA [sequence] FOR PROTOCADHERIN-PC, OR OTHER INHIBITORS OF PROTOCADHERIN-PC EXPRESSION OR ACTIVITY” (THE TRUSTEES OF COLUMBIA UNIVERSITY IN THE CITY OF NEW YORK, priority 2005, published 2009)
# Some results were stated once for a whole list of compounds, not compound by compound. Peptide text beside a SMILES is read from it. * marks the point of attachment. Cbz = O=C(OCc1ccccc1)*
# Tested on: hAR protein
# Experiment: Western blot of hAR protein in Wnt-activated LNCaP cells
# Type: cell-based, human
# Details: β-catenin transfected LNCaP; MG132 5 mM, lactacystin 10 mM, compound 5233705 50 mM for 12 h
# Text: FIGS. 43A-43C. […] FIG. 43A. […] FIG. 43B.
# FIGS. 44A-44B. Suppression of MDM2 expression or direct Akt activity relieves Wnt-mediated suppression of hAR protein expression. FIG. 44A. […] (middle). Actin control (bottom). FIG. 44B. […] Actin control (bottom).
# Cell lines, plasmids and siRNAs. LNCaP, CWR22rv-1, PC-3 and DU145 cells were obtained from ATCC and were passaged in normal (for LNCaP, RPMI 1640 with 10% fetal calf serum and supplements) or androgen-free maintained as previously described (Yang et al., 2005). A defective adenovirus that expresses Wnt-1 protein (Ad-Wnt-1) and control, Lac Z expressing adenovirus (Ad-lac Z) were previously described (Young et al., 1998). These viruses were applied at 20 particles/cell in low serum (2%) medium for 1 h. Expression plasmids containing mutated (stabilized) human β-catenin (Tetsu and McCormick, 1999), dominant negative TCF-4 (Chen et al., 2001) or PCDH-PC cDNA were transfected into cells as previously described (Example 1; Yang et al., 2005). […]
# Preparation of cell extracts and western blots. Cells were harvested and protein extracts prepared, quantified and used to prepare Western blots as previously described (Example 1; Yang et al., 2005). […] Recombinant Wnt-1 protein (HA-tagged) was detected with anti-HA antibody (Clontech Inc., Mountain View, Calif.). Antibody binding to the Western blot was detected as previously described (Yang et al., 2005). […]
compound,measurement,value
CC(C)C[C@@H](C=O)NC(=O)[C@H](CC(C)C)NC(=O)[C@H](CC(C)C)NC(=O)OCc1ccccc1 [MG132] (Cbz-Leu-Leu-Leu-aldehyde),hAR protein level relative to control(-transfected) cells,at least 12.3 fold
